According to the supplement of paper PMC4604168 (melanoma cell lines):
Some of the results follow. Single values are uncertain, as repeats are few or missing.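 Cells were imaged in 1,536-well plates, and nuclei stained with an antibody against cleaved PARP were counted against all DNA-stained nuclei to give the apoptosis fraction. Screening doses were chosen to leave most cells alive, and resting and induced cleaved-PARP levels differ strongly between cell lines.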

System: COLO792
Assay: cleaved PARP positive nuclei fraction relative to DMSO control; melanoma cells; higher = more apoptosis
Conditions: library dose: low library concentration; 72 h

Structure (SMILES)	cleaved PARP positive nuclei fraction
O=C(Nc1ccccc1)c1cc([N+](=O)[O-])ccc1Cl + O=S(=O)(c1ccccc1)N(CC(F)(F)F)c1ccc(C(O)(C(F)(F)F)C(F)(F)F)cc1 [T0901317] (first compound 2 µM, partner dose 1.4 µM)	89.9%
CN(C)S(=O)(=O)c1ccc2c(c1)/C(=C/c1cc3c([nH]1)CCCC3)C(=O)N2 + NCC(=O)Nc1ccc(-n2nc(C(F)(F)F)cc2-c2ccc3c(ccc4ccccc43)c2)cc1 [OSU03012] (first compound 0.4 µM, partner dose 1 µM)	27.7%
N#Cc1c(O)c2c(-c3ccc(-c4ccccc4O)cc3)csc2[nH]c1=O + O=S(=O)(c1ccccc1)N(CC(F)(F)F)c1ccc(C(O)(C(F)(F)F)C(F)(F)F)cc1 [T0901317] (first compound 2 µM, partner dose 1.4 µM)	65.1%
NCC(=O)Nc1ccc(-n2nc(C(F)(F)F)cc2-c2ccc3c(ccc4ccccc43)c2)cc1 + COc1cc2c(Oc3ccc4[nH]c(C)cc4c3F)ncnc2cc1OCCCN1CCCC1 [cediranib] (first compound 1 µM, partner dose 0.4 µM)	171%
CN(NC(=O)CC(=O)NN(C)C(=S)c1ccccc1)C(=S)c1ccccc1 + c1cc(-c2cnn3cc(-c4ccc(OCCN5CCCCC5)cc4)cnc23)ccn1 [Dorsomorphin] (first compound 0.006 µM, partner dose 0.4 µM)	140%
COc1cc2c(Oc3ccc4[nH]c(C)cc4c3F)ncnc2cc1OCCCN1CCCC1 [cediranib] + c1cc(-c2cnn3cc(-c4ccc(OCCN5CCCCC5)cc4)cnc23)ccn1 [Dorsomorphin] (first compound 0.4 µM, partner dose 0.4 µM)	56.8%
